Data as given in PMC11960670.
These are yes or no findings as the source states them, for the method shown. Some binding calls cover weakened binding; strength is not graded here. Where a sequence is shown, tags or fusion partners need not be part of it.

Target: Sav1866^3xFLAG, multidrug ABC transporter Sav1866 from Staphylococcus aureus with a 3xFLAG epitope tag (Staphylococcus aureus) (UniProt Q99T13)
Assay: native gel or EMSA; BN-PAGE (NativePAGE 3 to 12%) of crude membranes of A. balhimycina strains solubilised with 1% LMNG for 1 h at 4°C, 15 μg of solubilised membrane proteins, immunoblot with anti-FLAG antibody

B1: Sav1866^3xFLAG, multidrug ABC transporter Sav1866 from Staphylococcus aureus with a 3xFLAG epitope tag (protein, UniProt Q99T13 1-578)
chain: MIKRYLQFVKPYKYRIFATIIVGIIKFGIPMLIPLLIKYAIDGVINNHALTTDEKVHHLTIAIGIALFIFVIVRPPIEFIRQYLAQWTSNKILYDIRKKLYNHLQALSARFYANNQVGQVISRVINDVEQTKDFILTGLMNIWLDCITIIIALSIMFFLDVKLTLAALFIFPFYILTVYVFFGRLRKLTRERSQALAEVQGFLHERVQGISVVKSFAIEDNEAKNFDKKNTNFLTRALKHTRWNAYSFAAINTVTDIGPIIVIGVGAYLAISGSITVGTLAAFVGYLELLFGPLRRLVASFTTLTQSFASMDRVFQLIDEDYDIKNGVGAQPIEIKQGRIDIDHVSFQYNDNEAPILKDINLSIEKGETVAFVGMSGGGKSTLINLIPRFYDVTSGQILIDGHNIKDFLTGSLRNQIGLVQQDNILFSDTVKENILLGRPTATDEEVVEAAKMANAHDFIMNLPQGYDTEVGERGVKLSGGQKQRLSIARIFLNNPPILILDEATSALDLESESIIQEALDVLSKDRTTLIVAHRLSTITHADKIVVIENGHIVETGTHRELIAKQGAYEHLYSIQNL
For B1, the binding was “binds”.
